{"sequences": {"note": "Protein sequences, listed by entry. Tags and fused reporters are not part of them. Lines headed by an entry give the natural chain unless they say otherwise; changes in a name come on top.", "UniProt P15056": "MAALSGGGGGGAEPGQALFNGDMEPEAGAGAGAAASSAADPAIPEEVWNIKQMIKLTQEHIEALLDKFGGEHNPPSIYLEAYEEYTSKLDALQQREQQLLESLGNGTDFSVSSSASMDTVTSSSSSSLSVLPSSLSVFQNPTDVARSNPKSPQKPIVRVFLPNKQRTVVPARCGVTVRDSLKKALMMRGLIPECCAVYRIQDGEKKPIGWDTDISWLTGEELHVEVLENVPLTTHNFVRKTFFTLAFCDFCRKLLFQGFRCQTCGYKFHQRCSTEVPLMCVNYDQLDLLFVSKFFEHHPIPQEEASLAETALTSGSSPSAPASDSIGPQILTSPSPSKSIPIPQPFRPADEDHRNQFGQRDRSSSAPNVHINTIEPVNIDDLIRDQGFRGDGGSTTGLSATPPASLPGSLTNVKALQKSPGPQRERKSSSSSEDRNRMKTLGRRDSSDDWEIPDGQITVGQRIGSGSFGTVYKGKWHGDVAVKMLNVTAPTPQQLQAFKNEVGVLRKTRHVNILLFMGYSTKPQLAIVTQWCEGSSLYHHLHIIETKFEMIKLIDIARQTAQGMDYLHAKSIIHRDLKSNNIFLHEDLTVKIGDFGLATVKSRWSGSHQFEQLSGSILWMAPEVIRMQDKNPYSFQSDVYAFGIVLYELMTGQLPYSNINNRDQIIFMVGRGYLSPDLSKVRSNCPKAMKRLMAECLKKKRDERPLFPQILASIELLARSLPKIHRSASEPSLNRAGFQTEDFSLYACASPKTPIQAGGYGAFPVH"}, "source": "paper PMC4673164", "binders": {"B1": {"name": "TRAP1 (protein, UniProt Q12931 60-704)", "chain": "STQTAEDKEEPLHSIISSTESVQGSTSKHEFQAETKKLLDIVARSLYSEKEVFIRELISNASDALEKLRHKLVSDGQALPEMEIHLQTNAEKGTITIQDTGIGMTQEELVSNLGTIARSGSKAFLDALQNQAEASSKIIGQFGVGFYSAFMVADRVEVYSRSAAPGSLGYQWLSDGSGVFEIAEASGVRTGTKIIIHLKSDCKEFSSEARVRDVVTKYSNFVSFPLYLNGRRMNTLQAIWMMDPKDVREWQHEEFYRYVAQAHDKPRYTLHYKTDAPLNIRSIFYVPDMKPSMFDVSRELGSSVALYSRKVLIQTKATDILPKWLRFIRGVVDSEDIPLNLSRELLQESALIRKLRDVLQQRLIKFFIDQSKKDAEKYAKFFEDYGLFMREGIVTATEQEVKEDIAKLLRYESSALPSGQLTSLSEYASRMRAGTRNIYYLCAPNRHLAEHSPYYEAMKKKDTEVLFCFEQFDELTLLHLREFDKKKLISVETDIVVDHYKEEKFEDRSPAAECLSEKETEELMAWMRNVLGSRVTNVKVTLRLDTHPAMVTVLEMGAARHFLRMQQLAKTQEERAQLLQPTLEINPRHALIKKLNQLRASEPGLAQLLVDQIYENAMIAAGLVDDPRAMVGRLNELLVKALERH"}}, "key": {"[1]": {"target": "BRAF wild type (BRAF-myc) (human) (UniProt P15056)", "test": "co-IP; mitochondrial fractions of HCT116 cells co-transfected with TRAP1 and BRAF-myc or BRAF-V600E-myc; immunoprecipitated with anti-myc, immunoblotted for TRAP1; 18 h at 4°C, protein A/G-agarose, washed twice in lysis buffer"}, "[2]": {"target": "BRAF-V600E (BRAF-V600E-myc) (human) (UniProt P15056)", "test": "co-IP; mitochondrial fractions of HCT116 cells co-transfected with TRAP1 and BRAF-myc or BRAF-V600E-myc; immunoprecipitated with anti-myc, immunoblotted for TRAP1; 18 h at 4°C, protein A/G-agarose, washed twice in lysis buffer"}}, "note": "Results are given in words; binding and its absence hold for the method and conditions named. Binding seen in cells or lysates may run through a third protein. Some results given as binding are weak or reduced against the parent protein; the word gives no strength."}
{"binder": "B1", "values": [{"measurement": "binding", "setting": "[1]", "value": "binds"}, {"measurement": "binding", "setting": "[2]", "value": "binds"}]}
